Source: PMC8215223
These are yes or no findings as the source states them, for the method shown. Binding seen in cells or lysates may run through a third protein. Some binding calls cover weakened binding; strength is not graded here. For part of these data: Where a sequence is shown, tags or fusion partners need not be part of it.

T1: HOOK3 (endogenous) (human (endogenous in HeLa)) (UniProt Q86VS8)
T1 sequence: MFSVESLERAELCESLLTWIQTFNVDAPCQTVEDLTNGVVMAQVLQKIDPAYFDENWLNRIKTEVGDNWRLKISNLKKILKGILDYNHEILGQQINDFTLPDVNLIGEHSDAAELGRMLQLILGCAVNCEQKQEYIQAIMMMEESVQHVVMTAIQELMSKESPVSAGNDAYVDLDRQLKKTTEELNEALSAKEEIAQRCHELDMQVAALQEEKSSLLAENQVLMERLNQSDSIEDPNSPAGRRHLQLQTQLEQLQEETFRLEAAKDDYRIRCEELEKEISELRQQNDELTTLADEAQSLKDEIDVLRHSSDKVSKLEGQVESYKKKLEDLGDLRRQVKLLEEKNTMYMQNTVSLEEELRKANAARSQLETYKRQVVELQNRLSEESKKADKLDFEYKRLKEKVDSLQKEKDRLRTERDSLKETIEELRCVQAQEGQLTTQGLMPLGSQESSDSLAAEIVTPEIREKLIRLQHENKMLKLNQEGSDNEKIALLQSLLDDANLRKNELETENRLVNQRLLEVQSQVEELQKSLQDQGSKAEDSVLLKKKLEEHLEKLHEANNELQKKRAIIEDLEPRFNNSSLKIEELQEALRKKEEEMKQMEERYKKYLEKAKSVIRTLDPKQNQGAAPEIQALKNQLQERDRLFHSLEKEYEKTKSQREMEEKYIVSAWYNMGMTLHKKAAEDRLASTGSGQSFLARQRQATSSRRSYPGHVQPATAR

T2: GFP-HOOK3 2SA (S238,707A) (human) (UniProt Q86VS8)
T2 sequence: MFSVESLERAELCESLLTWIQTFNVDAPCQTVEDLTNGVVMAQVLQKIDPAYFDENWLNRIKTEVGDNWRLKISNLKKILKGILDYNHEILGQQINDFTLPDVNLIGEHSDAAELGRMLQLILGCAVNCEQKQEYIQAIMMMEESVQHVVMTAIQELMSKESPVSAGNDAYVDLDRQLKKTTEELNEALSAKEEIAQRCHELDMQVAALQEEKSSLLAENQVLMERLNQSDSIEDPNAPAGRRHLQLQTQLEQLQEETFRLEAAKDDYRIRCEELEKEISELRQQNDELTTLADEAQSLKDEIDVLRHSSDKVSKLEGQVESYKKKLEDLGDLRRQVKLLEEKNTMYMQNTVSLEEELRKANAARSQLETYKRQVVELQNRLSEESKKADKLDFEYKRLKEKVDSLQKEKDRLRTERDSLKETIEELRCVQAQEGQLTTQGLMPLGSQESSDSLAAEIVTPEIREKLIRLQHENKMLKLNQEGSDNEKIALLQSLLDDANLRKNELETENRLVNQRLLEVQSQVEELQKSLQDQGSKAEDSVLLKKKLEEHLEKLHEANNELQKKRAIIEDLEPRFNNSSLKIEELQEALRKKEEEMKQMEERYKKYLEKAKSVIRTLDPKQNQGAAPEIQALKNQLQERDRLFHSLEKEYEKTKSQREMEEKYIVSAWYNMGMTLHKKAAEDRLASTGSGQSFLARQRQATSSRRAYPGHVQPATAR

T3: GFP-WT-HOOK3 (human) (UniProt Q86VS8)
T3 sequence: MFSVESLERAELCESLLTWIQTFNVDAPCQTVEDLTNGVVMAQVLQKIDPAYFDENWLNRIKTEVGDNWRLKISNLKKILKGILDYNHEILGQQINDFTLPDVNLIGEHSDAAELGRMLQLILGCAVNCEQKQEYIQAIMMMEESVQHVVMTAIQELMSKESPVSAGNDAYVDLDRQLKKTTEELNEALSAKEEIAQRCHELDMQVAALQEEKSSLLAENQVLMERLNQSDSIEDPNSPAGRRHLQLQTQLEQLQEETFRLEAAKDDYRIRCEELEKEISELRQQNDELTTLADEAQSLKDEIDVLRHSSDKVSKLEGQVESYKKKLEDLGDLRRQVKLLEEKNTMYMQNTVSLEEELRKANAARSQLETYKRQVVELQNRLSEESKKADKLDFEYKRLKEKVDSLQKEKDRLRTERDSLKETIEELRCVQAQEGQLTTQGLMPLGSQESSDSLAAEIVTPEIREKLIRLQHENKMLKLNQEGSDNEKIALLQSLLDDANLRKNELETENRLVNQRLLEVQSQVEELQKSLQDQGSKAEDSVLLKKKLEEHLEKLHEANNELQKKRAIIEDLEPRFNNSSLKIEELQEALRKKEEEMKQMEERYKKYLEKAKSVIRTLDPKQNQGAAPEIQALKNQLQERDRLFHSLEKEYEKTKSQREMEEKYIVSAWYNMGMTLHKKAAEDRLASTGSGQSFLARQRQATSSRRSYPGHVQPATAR


What was measured:
[1] = target: T1, HOOK3 (endogenous) (human (endogenous in HeLa)); assay: co-IP; HeLa extracts in Buffer H (sonicated, 15,000 x g); 2 hr at 4°C with A/G-agarose beads pre-linked with antibody; washed with coIP-washing buffer; Western blot; cells left non-treated, treated with 100 ng/mL nocodazole for 16 hr, or released from a thymidine block
[2] = target: T1, HOOK3 (endogenous) (human (endogenous in HeLa)); assay: condition: only cycling cells (no nocodazole, not in mitosis); co-IP; as a1, extracts of cycling (non-treated) HeLa cells only
[3] = target: T1, HOOK3 (endogenous) (human (endogenous in HeLa)); assay: proximity ligation; Duolink PLA kit on fixed, permeabilized HeLa cells; non-treated or 100 ng/mL nocodazole for 16 hr; pHisH3 staining marks mitotic cells
[4] = target: T2, GFP-HOOK3 2SA (S238,707A) (human); assay: co-IP; HeLa extracts in Buffer H (sonicated, 15,000 x g); 2 hr at 4°C with A/G-agarose beads pre-linked with antibody; washed with coIP-washing buffer; Western blot; cells left non-treated, treated with 100 ng/mL nocodazole for 16 hr, or released from a thymidine block
GFP-WT-HOOK3 (human) = target: T3, GFP-WT-HOOK3 (human); assay: as above

binding [1]	binding [2]	binding [3]	binding [4]	binding (GFP-WT-HOOK3 (human))	Binder
binds	–	–	–	–	CLASP2 (endogenous) (protein, UniProt O75122 1-1294) MAMGDDKSFDDEESVDGNRPSSAASAFKVPAPKTSGNPANSARKPGSAGGPKVGGASKEGGAGAVDEDDFIKAFTDVPSIQIYSSRELEETLNKIREILSDDKHDWDQRANALKKIRSLLVAGAAQYDCFFQHLRLLDGALKLSAKDLRSQVVREACITVAHLSTVLGNKFDHGAEAIVPTLFNLVPNSAKVMATSGCAAIRFIIRHTHVPRLIPLITSNCTSKSVPVRRRSFEFLDLLLQEWQTHSLERHAAVLVETIKKGIHDADAEARVEARKTYMGLRNHFPGEAETLYNSLEPSYQKSLQTYLKSSGSVASLPQSDRSSSSSQESLNRPFSSKWSTANPSTVAGRVSAGSSKASSLPGSLQRSRSDIDVNAAAGAKAHHAAGQSVRSGRLGAGALNAGSYASLEDTSDKLDGTASEDGRVRAKLSAPLAGMGNAKADSRGRSRTKMVSQSQPGSRSGSPGRVLTTTALSTVSSGVQRVLVNSASAQKRSKIPRSQGCSREASPSRLSVARSSRIPRPSVSQGCSREASRESSRDTSPVRSFQPLASRHHSRSTGALYAPEVYGASGPGYGISQSSRLSSSVSAMRVLNTGSDVEEAVADALKKPARRRYESYGMHSDDDANSDASSACSERSYSSRNGSIPTYMRQTEDVAEVLNRCASSNWSERKEGLLGLQNLLKNQRTLSRVELKRLCEIFTRMFADPHGKRVFSMFLETLVDFIQVHKDDLQDWLFVLLTQLLKKMGADLLGSVQAKVQKALDVTRESFPNDLQFNILMRFTVDQTQTPSLKVKVAILKYIETLAKQMDPGDFINSSETRLAVSRVITWTTEPKSSDVRKAAQSVLISLFELNTPEFTMLLGALPKTFQDGATKLLHNHLRNTGNGTQSSMGSPLTRPTPRSPANWSSPLTSPTNTSQNTLSPSAFDYDTENMNSEDIYSSLRGVTEAIQNFSFRSQEDMNEPLKRDSKKDDGDSMCGGPGMSDPRAGGDATDSSQTALDNKASLLHSMPTHSSPRSRDYNPYNYSDSISPFNKSALKEAMFDDDADQFPDDLSLDHSDLVAELLKELSNHNERVEERKIALYELMKLTQEESFSVWDEHFKTILLLLLETLGDKEPTIRALALKVLREILRHQPARFKNYAELTVMKTLEAHKDPHKEVVRSAEEAASVLATSISPEQCIKVLCPIIQTADYPINLAAIKMQTKVIERVSKETLNLLLPEIMPGLIQGYDNSESSVRKACVFCLVAVHAVIGDELKPHLSQLTGSKMKLLNLYIKRAQTGSGGADPTTDVSGQS
binds	no binding	binds	no binding	binds	GM130 (endogenous) (protein, UniProt Q08379 1-1002) MWPQPRLPPRPAMSEETRQSKLAAAKKKLREYQQRNSPGVPTGAKKKKKIKNGSNPETTTSGGCHSPEDTPKDNAATLQPSDDTVLPGGVPSPGASLTSMAASQNHDADNVPNLMDETKTFSSTESLRQLSQQLNGLVCESATCVNGEGPASSANLKDLESRYQQLAVALDSSYVTNKQLNITIEKLKQQNQEITDQLEEEKKECHQKQGALREQLQVHIQTIGILVSEKAELQTALAHTQHAARQKEGESEDLASRLQYSRRRVGELERALSAVSTQQKKADRYNKELTKERDALRLELYKNTQSNEDLKQEKSELEEKLRVLVTEKAGMQLNLEELQKKLEMTELLLQQFSSRCEAPDANQQLQQAMEERAQLEAHLGQVMESVRQLQMERDKYAENLKGESAMWRQRMQQMSEQVHTLREEKECSMSRVQELETSLAELRNQMAEPPPPEPPAGPSEVEQQLQAEAEHLRKELEGLAGQLQAQVQDNEGLSRLNREQEERLLELERAAELWGEQAEARRQILETMQNDRTTISRALSQNRELKEQLAELQSGFVKLTNENMEITSALQSEQHVKRELGKKLGELQEKLSELKETVELKSQEAQSLQQQRDQYLGHLQQYVAAYQQLTSEKEVLHNQLLLQTQLVDQLQQQEAQGKAVAEMARQELQETQERLEAATQQNQQLRAQLSLMAHPGEGDGLDREEEEDEEEEEEEAVAVPQPMPSIPEDLESREAMVAFFNSAVASAEEEQARLRGQLKEQRVRCRRLAHLLASAQKEPEAAAPAPGTGGDSVCGETHRALQGAMEKLQSRFMELMQEKADLKERVEELEHRCIQLSGETDTIGEYIALYQSQRAVLKERHREKEEYISRLAQDKEEMKVKLLELQELVLRLVGDRNEWHGRFLAAAQNPADEPTSGAPAPQELGAANQQGDLCEVSLAGSVEPAQGEAREGSPRDNPTAQQIMQLLREMQNPRERPGLGSNPCIPFFYRADENDEVKITVI
